Test results published in PubChem BioAssay AID328 (DTP/NCI, 2004).
The list is a part of this screen's results and no random one: it gathers tests that were run many times, whatever their T/C, doses with no T/C, and many T/C values between a quarter and a half above the control. Further doses and runs are listed elsewhere. T/C gives the treated animals as a percentage of the vehicle group. Some doses have a count of surviving animals in place of a T/C: the source holds a T/C of zero for them, seemingly a mark for toxic or unscored doses. Some doses without a T/C left all or most animals alive at the check, yet need not have been tolerated: the source hardly ever lists a survival T/C far under the control, and the zero likely stands for such cases as well. Counts of survivors are from the toxicity check (mostly the fifth day) where no day follows; animals may have died later. Schedule codes are those of the source, taken here to give the interval after Q, in days (D) or hours (H), and the number of doses after X. Signs of the kind (2×) stand for listed records that agree. For survival time, the PubChem record calls one and a half times the control and up active, and a quarter to a half above the control has no call in these data; cut-offs in other NCI protocols can differ. Some T/C values are followed by the survivors on the day toxicity was checked, most often the fifth; without a count, all were alive then. Some doses were run more than once; the results are listed from low to high.

Tested on: BDF1 mice, P388 leukemia ip, median survival T/C
Experiment: NCI In Vivo Anticancer Drug Screen. Data for tumor model P388 Leukemia (intraperitoneal) in B6D2F1 (BDF1) mice
Settings: T/C endpoint: median survival time, higher T/C = longer survival
How it was run: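 Each value expresses how treatment altered survival: treated-mouse outcome over vehicle-mouse outcome, both groups bearing the transplanted tumour.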

[1] = dose: 100.0 mg/kg/injection, schedule: Q01DX009 (ip), vehicle: saline
[2] = dose: 100.0 mg/kg/injection, schedule: Q01DX009 (ip), vehicle: Klucel (hydroxypropylcellulose) (HPC)
[3] = dose: 100.0 mg/kg/injection, schedule: Q04DX003 (ip), vehicle: saline

## N#Cc1cccc(C[P+](c2ccccc2)(c2ccccc2)c2ccccc2)c1
dose: 26.25 mg/kg/injection, schedule: Q04DX003 (ip), vehicle: Klucel (hydroxypropylcellulose) (HPC)
  T/C: 125 % of control
dose: 55.0 mg/kg/injection, schedule: Q01DX009 (ip), vehicle: Klucel (hydroxypropylcellulose) (HPC)
  survivor count: 1 of 6
dose: 80.0 mg/kg/injection, schedule: Q01DX009 (ip), vehicle: Klucel (hydroxypropylcellulose) (HPC)
  survivor count: 0 of 6
dose: 105.0 mg/kg/injection, schedule: Q04DX003 (ip), vehicle: Klucel (hydroxypropylcellulose) (HPC)
  survivor count: 4 of 6

## Cc1cc([N+](=O)[O-])cc(C)c1OC(=O)c1ccc(N=C(N)N)cc1
[1]
  survivor count: 2 of 6
dose: 200.0 mg/kg/injection, schedule: Q04DX003 (ip), vehicle: saline
  survivor count: 2 of 6

## CCOc1c(Cl)cc(Cl)cc1C(c1ccc(Cl)cc1S(=O)(=O)O)c1cc(Cl)cc(Cl)c1OCC
dose: 100.0 mg/kg/injection, schedule: Q01DX009 (ip), vehicle: saline with Tween-80
  survivor count: 4 of 6

## Cc1ccc(C(Br)C2=CC(C)(C)c3ccccc3C2=O)cc1 (configuration not stated)
[2]
  T/C: 130 % of control
  survivor count: 6 of 6
dose: 200.0 mg/kg/injection, schedule: Q01DX009 (ip), vehicle: Klucel (hydroxypropylcellulose) (HPC)
  T/C: 130 % of control
dose: 400.0 mg/kg/injection, schedule: Q01DX009 (ip), vehicle: Klucel (hydroxypropylcellulose) (HPC)
  T/C: 130 % of control

## NCC=C1C2CC3CC(C2)CC1C3
[3]
  survivor count: 3 of 6

## COc1ccc(CN(C(C)=O)c2cc(C)c([N+](=O)[O-])cc2OC)cc1OC
[3]
  survivor count: 6 of 6

## Cc1ccc(N2CCN(C3=CCC(C(C)C)CC3)CC2)cc1Cl (configuration not stated)
dose: 400.0 mg/kg/injection, schedule: Q01DX001 (ip), vehicle: saline with Tween-80
  survivor count: 1 of 6

## Nc1ncn(C2OC(CO)C(O)C2O)c(=O)n1 (configuration not stated)
dose: 0.93 mg/kg/injection, schedule: Q04DX003 (ip), vehicle: saline
  T/C: 137 % of control
dose: 1.25 mg/kg/injection, schedule: Q04DX003 (ip), vehicle: saline, evaluated on day 5
  T/C: 122 % of control
dose: 1.25 mg/kg/injection, schedule: Q04DX003 (ip), vehicle: saline, evaluated on day 8
  T/C: 97 [4 of 6 alive], 110, 120 % of control
dose: 1.3 mg/kg/injection, schedule: Q04DX003 (ip), vehicle: saline
  T/C: 145 % of control
dose: 2.12 mg/kg/injection, schedule: Q04DX003 (ip), vehicle: saline
  T/C: 136 % of control
dose: 2.5 mg/kg/injection, schedule: Q04DX003 (ip), vehicle: saline, evaluated on day 5
  T/C: 150 % of control
dose: 2.5 mg/kg/injection, schedule: Q04DX003 (ip), vehicle: saline, evaluated on day 8
  T/C: 91 [4 of 6 alive], 97 [6 of 7 alive], 142 % of control
dose: 5.0 mg/kg/injection, schedule: Q04DX003 (ip), vehicle: saline, evaluated on day 5
  T/C: 176 % of control
dose: 5.0 mg/kg/injection, schedule: Q04DX003 (ip), vehicle: saline, evaluated on day 8
  T/C: 100, 100 [6 of 7 alive], 145 % of control
dose: 8.0 mg/kg/injection, schedule: Q01DX005 (ip), vehicle: saline
  T/C: 125 % of control
dose: 8.5 mg/kg/injection, schedule: Q04DX003 (ip), vehicle: saline
  T/C: 127 % of control
dose: 10.0 mg/kg/injection, schedule: Q04DX003 (ip), vehicle: saline, evaluated on day 5
  T/C: 254 % of control
dose: 10.0 mg/kg/injection, schedule: Q04DX003 (ip), vehicle: saline, evaluated on day 8
  T/C: 167, 201, 227 % of control
dose: 13.0 mg/kg/injection, schedule: Q01DX009 (ip), vehicle: saline
  survivor count: 6 of 6
dose: 16.0 mg/kg/injection, schedule: Q01DX005 (ip), vehicle: saline
  survivor count: 6 of 6
dose: 18.0 mg/kg/injection, schedule: Q04DX003 (ip), vehicle: saline
  T/C: 149 % of control
dose: 19.0 mg/kg/injection, schedule: Q01DX009 (ip), vehicle: saline
  survivor count: 6 of 6
dose: 20.0 mg/kg/injection, schedule: Q04DX003 (ip), vehicle: saline, evaluated on day 5
  T/C: 203 % of control
dose: 20.0 mg/kg/injection, schedule: Q04DX003 (ip), vehicle: saline, evaluated on day 8
  T/C: 125, 158, 163 % of control
dose: 20.0 mg/kg/injection, schedule: Q04DX004 (ip), vehicle: saline
  T/C: 138 % of control
dose: 24.0 mg/kg/injection, schedule: Q04DX004 (ip), vehicle: saline
  T/C: 136 % of control
dose: 28.0 mg/kg/injection, schedule: Q04DX003 (ip), vehicle: saline
  T/C: 145 % of control
dose: 30.0 mg/kg/injection, schedule: Q04DX003 (ip), vehicle: saline
  survivor count: 8 of 8
dose: 32.0 mg/kg/injection, schedule: Q01DX005 (ip), vehicle: saline
  survivor count: 0 of 6
dose: 33.0 mg/kg/injection, schedule: Q01DX001 (ip), vehicle: saline
  T/C: 148 % of control
dose: 40.0 mg/kg/injection, schedule: Q04DX003 (ip), vehicle: saline, evaluated on day 5
  T/C: 79 % of control
dose: 40.0 mg/kg/injection, schedule: Q04DX003 (ip), vehicle: saline, evaluated on day 8
  T/C: 104, 109, 121 % of control
dose: 50.0 mg/kg/injection, schedule: Q01DX001 (ip), vehicle: saline, evaluated on day 5
  T/C: 138, 184, 185 % of control
dose: 50.0 mg/kg/injection, schedule: Q01DX001 (ip), vehicle: saline, evaluated on day 60
  T/C: 184 % of control
dose: 75.0 mg/kg/injection, schedule: Q01DX001 (ip), vehicle: saline, evaluated on day 5
  T/C: 160, 169, 185 % of control
dose: 75.0 mg/kg/injection, schedule: Q01DX001 (ip), vehicle: saline, evaluated on day 60
  T/C: 185 % of control
dose: 100.0 mg/kg/injection, schedule: Q01DX001 (ip), vehicle: saline, evaluated on day 5
  T/C: 155, 175, 184 % of control
dose: 100.0 mg/kg/injection, schedule: Q01DX001 (ip), vehicle: saline, evaluated on day 60
  T/C: 184 % of control
dose: 125.0 mg/kg/injection, schedule: Q01DX001 (ip), vehicle: saline, evaluated on day 5
  T/C: 123, 185, 191 % of control
dose: 125.0 mg/kg/injection, schedule: Q01DX001 (ip), vehicle: saline, evaluated on day 60
  T/C: 185 % of control [9 of 10 alive]
dose: 150.0 mg/kg/injection, schedule: Q01DX001 (ip), vehicle: saline
  T/C: 129 % of control
dose: 165.0 mg/kg/injection, schedule: Q01DX001 (ip), vehicle: saline
  survivor count: 3 of 10

## CN(C)P(=O)(N(C)C)N(C)CCN(C)P(=O)(N(C)C)N(C)C
[1]
  survivor count: 4 of 6
dose: 200.0 mg/kg/injection, schedule: Q01DX009 (ip), vehicle: saline
  survivor count: 1 of 6

## Oc1cc(OCCCc2ccc(F)cc2)cc2ccc3ccccc3c12
dose: 400.0 mg/kg/injection, schedule: Q04DX003 (ip), vehicle: saline with Tween-80
  survivor count: 1 of 6

## O=C(O)c1cc[c]([Hg][S]c2ncnc3nc[nH]c23)cc1
dose: 50.0 mg/kg/injection, schedule: Q01DX009 (ip), vehicle: suspension in saline
  survivor count: 3 of 6
dose: 100.0 mg/kg/injection, schedule: Q01DX009 (ip), vehicle: suspension in saline
  survivor count: 0 of 6
dose: 200.0 mg/kg/injection, schedule: Q01DX009 (ip), vehicle: suspension in saline
  survivor count: 0 of 6

## O=C1c2cccnc2C(=O)N1Cc1ccccc1
dose: 75.0 mg/kg/injection, schedule: Q01DX009 (ip), vehicle: saline with Tween-80
  survivor count: 6 of 6
dose: 150.0 mg/kg/injection, schedule: Q01DX009 (ip), vehicle: saline with Tween-80
  survivor count: 6 of 6
dose: 300.0 mg/kg/injection, schedule: Q01DX009 (ip), vehicle: saline with Tween-80
  survivor count: 6 of 6

## COC1CC(OS(=O)(=O)c2ccc(C)cc2)C(O)C(C)O1 (configuration not stated)
dose: 400.0 mg/kg/injection, schedule: Q01DX009 (ip), vehicle: saline with Tween-80
  survivor count: 5 of 6 (2×)

## CCN(CC)C(=O)Cn1cc(F)c(N)nc1=O
dose: 400.0 mg/kg/injection, schedule: Q01DX009 (ip), vehicle: saline
  survivor count: 4 of 6
